Data published in patent EP4740933A1, “CLEANING COMPOSITION AND USE THEREOF” (Suzhou Oulit Biopharm Co., Ltd., priority 2023, dated 2025).
Some results come without the dose or concentration used.

test system: Reconstructed Human Epidermis; experiment: In vitro skin irritation: reconstructed human epidermis test (OECD TG 439); format: cell-based

Row | Compound | OD value Mean
1 | CCCCCCCCCCCCOS(=O)(=O)[O-].[Na+] [Sodium dodecyl sulfate (K12), Sodium dodecyl sulfate] | 0.4640
2 | CCCCCCCCCCCC(=O)NC(C)C(=O)[O-].[Na+] (stereo not drawn) [LA-NaOH] | 0.9895
3 | CCCCCCCCCCCC(=O)N[C@@H](C)C(=O)O.N=C(N)NCCC[C@H](N)C(=O)O [LA-Arg] | 1.1080
4 | CCCCCCCCCCCC(=O)N[C@@H](C)C(=O)O [Lauroyl alanine (LA), Lauroyl alanine] | 1.0866
5 | Sodium laureth sulfate [Sodium laureth sulfate (AES)] | 0.6498
6 | CCCCCCCCCCCCOS(=O)(=O)[O-].[Na+] [Positive control (PC)] | 0.0458
